Measurements reported in paper PMC12670160, “A drug-repurposing screen of FDA- and EMA-approved drugs identifies two NF-κB inhibitors active against eumycetoma” (Journal of Antimicrobial Chemotherapy, 2025).
Where a name gives a salt, the structure may show the parent alone. Hit rate of the full screen: of about 5,300 compounds, about 130 (2.5%) showed an effect of 50% or more. Some of the results follow. Peptide text beside a SMILES is read from it. * marks the point of attachment. PhAc = O=C(Cc1ccccc1)*

The compounds below were run on M. mycetomatis strain mm55. Details: primary screen, metabolic activity vs growth control; 96 h, 2 µM; inhibitor.

Row | Structure (SMILES) | % viability
1 | Cc1cccc(C)c1NC(=O)CN1CCCC1=O [ONC0004080, nefiracetam] | 87.23%
2 | CC(C)(C)NC(=O)[C@H]1CC[C@H]2[C@@H]3CC[C@H]4NC(=O)C=C[C@]4(C)[C@H]3CC[C@]12C [ONC0005580, finasteride] | 64.51%
3 | Cc1ccc(C(=O)Cn2c3c(sc2=N)CCCC3)cc1 [ONC0000087, pifithrinalpha] | 88.89%
4 | C=CC[N+]1([C@H]2C[C@H]3[C@@H]4CC[C@H]5C[C@H](O)[C@@H](N6CCOCC6)C[C@]5(C)[C@H]4CC[C@]3(C)[C@H]2OC(C)=O)CCCC1 [ONC0002413, rocuronium bromide] | 103.6%
5 | C[C@H](O)[C@H](O)[C@H]1CNc2nc(N)[nH]c(=O)c2N1 [ONC0003252, sapropterin] | 92.95%
6 | O=c1ccn([C@@H]2O[C@H](COP(=O)(O)OP(=O)(O)OP(=O)(O)O)C(O)C2O)c(=O)[nH]1 (some centres unmarked) [ONC0002020, uridine5triphosphate3na] | 73.27%
7 | Nc1nc2c(sc(=O)n2[C@@H]2O[C@H](CO)[C@@H](O)[C@H]2O)c(=O)[nH]1 [ONC0002890, 5amino3dribofuranosylthiazolo45dpyrimidin273h6hdione 7thia8oxoguanosine] | 143.9%
8 | CCN1CCN(c2ccc(C(C)(C)NC(=O)c3cc4[nH]c5ccccc5c(=O)c4cc3F)cn2)CC1 [ONC0002677, bms566419] | 74.64%
9 | CC(C)C(=O)c1c(C(C)C)nn2ccccc12 [ONC0001478, ibudilast] | 65.78%
10 | CCS(=O)(=O)N1CCN(c2ccc(Nc3ncc(C(N)=O)c(NC4CC4)n3)cc2)CC1 [ONC0001809, cerdulatinib] | 122.7%
11 | Cc1ccc(C)c(C(O)CNC(C)C)c1 (centres unmarked) [ONC0003752, benzenemethanol25dimethyl1methylethylaminomethyl] | 83.44%
12 | FC(F)(F)c1ccccc1-c1cc(C(F)(F)F)c2[nH]c(C3=NOC4(CCCCC4)C3)nc2c1 [ONC0003118, tci2014] | 71.9%
13 | CC(C)CC(NC(=O)C1CCCN1)C(=O)NCC(N)=O (stereo not drawn) [ONC0002964, prolylleucylglycinamide] (H-Pro-Leu-Gly-NH2; configuration not given here) | 144.3%
14 | Cn1c(N2CCCCS2(=O)=O)nc(C(=O)NCc2ccc(F)cc2)c(O)c1=O [ONC0004672, bms707035] | 106%
15 | CC(CN(C)C)CN1c2ccccc2CCc2ccccc21 (centres unmarked) [ONC0002854, trimipramine maleate] | 124.6%
16 | CCCC(O)C(CC)CO (centres unmarked) [ONC0003288, 2ethyl13hexanediol] | 96.38%
17 | O=C(/C=C/c1ccc(O)c2c1[C@@H](C(=O)O[C@H](Cc1ccc(O)c(O)c1)C(=O)O)[C@H](c1ccc(O)c(O)c1)O2)O[C@H](Cc1ccc(O)c(O)c1)C(=O)O [ONC0000334, salvianolic acid b] | 78.81%
18 | OC(CCN1CCCC1)(c1ccccc1)C1CCCCC1 (centres unmarked) [ONC0000469, procyclidine hydrochloride] | 74.91%
19 | C[C@]12CCC(=O)C=C1C=C[C@@H]1[C@@H]2CC[C@@]2(C)[C@H]1CC[C@@]2(O)CCC(=O)O [ONC0003183, canrenoic acid potassium salt] | 87.76%
20 | CO/N=C1/C[C@@H](C(=O)NC[C@@H](O)c2ccccc2)N(C(=O)c2ccc(-c3ccccc3C)cc2)C1 [ONC0001890, otrantagonist1] | 132.6%

Row | Structure (SMILES) | % viability
21 | Cn1c(=O)c2c(ncn2CCOC(=O)C(C)(C)Oc2ccc(Cl)cc2)n(C)c1=O [ONC0003706, etofyllineclofibrate] | 113.3%
22 | CC(C)NCC(O)COc1cccc2[nH]ccc12 (centres unmarked) [ONC0000503, pindolol] | 66.48%
23 | CC(C)n1nccc1-c1ncccc1COc1cccc(O)c1C=O [ONC0001792, voxelotor] | 97.11%
24 | CC[C@H]1CN2CCc3cc(OC)c(OC)cc3C2C[C@@H]1CC1NCCc2cc(OC)c(OC)cc21 (some centres unmarked) [ONC0000760, emetine dihydrochloride] | 79.69%
25 | CC1(C)O[C@@H]2C[C@H]3[C@@H]4C[C@H](F)C5=CC(=O)C=C[C@]5(C)[C@H]4[C@@H](O)C[C@]3(C)[C@]2(C(=O)CO)O1 [ONC0000633, flunisolide] | 112.6%
26 | CN(Cc1cc(Br)cc(Br)c1N)C1CCCCC1 [ONC0002822, bromhexine hydrochloride] | 79.46%
27 | CN1C(=O)N(C)C2C1N(C)C(=O)N2C (centres unmarked) [ONC0002881, mebicar] | 100.3%
28 | Cn1cnc(=N)c2nc[nH]c21 [ONC0004721, 3methyladenine 3ma] | 115.8%
29 | CCCNCCc1ccc(NS(=O)(=O)c2ccc(OC(F)(F)F)cc2)cc1 [ONC0002556, pnu177864] | 83.59%
30 | CCOC(=O)c1c2c3c(cccc3[nH]c1=O)C(=O)c1ccccc1-2 [ONC0001061, nqdi1] | 43.7%
31 | C[C@H](CS)C(=O)N1CCC[C@H]1C(=O)O [ONC0000699, captopril] | 85.99%
32 | CC(C)=CCC/C(C)=C/CC/C(C)=C/CC[C@]1(C)CCc2cc(O)cc(C)c2O1 [ONC0003398, deltatocotrienol] | 70.55%
33 | Cc1c(-c2ccc(-c3ccccc3F)cc2)nc2ccc(F)cc2c1C(=O)O [ONC0004113, brequinar sodium salt hydrate] | 82.66%
34 | CC(C)C[C@H](NC(=O)OCC1c2ccccc2-c2ccccc21)C(=O)O [ONC0005461, fmoclleucine] | 142.1%
35 | COc1ccnc(C[S+]([O-])c2nc3ccc(OC(F)F)cc3[nH]2)c1OC (centres unmarked) [ONC0001058, pantoprazole sodium] | 66.04%
36 | COc1ccccc1CN[C@H]1CCCN[C@H]1c1ccccc1 [ONC0002633, cp99994] | 71.16%
37 | O=C(/C=C/c1cccnc1)NCCCCC1CCN(C(=O)c2ccccc2)CC1 [ONC0003480, fk866] | 50.58%
38 | NCCc1ccc(O)c(O)c1 [ONC0000660, dopamine hydrochloride] | 86.19%
39 | CC(ONC(=O)c1cc(C(F)(F)F)cc(C(F)(F)F)c1)C(=O)Nc1ccc(Cl)cc1 (centres unmarked) [ONC0003028, ccg1423] | 136%
40 | N#CC1(c2ccc(NC(=O)c3cccnc3NCc3ccncc3)cc2)CCCC1 [ONC0005002, apatinib mesylate] | 98.91%

Part of the list above, tab-delimited.
Row	Structure (SMILES)	% viability
29	CCCNCCc1ccc(NS(=O)(=O)c2ccc(OC(F)(F)F)cc2)cc1 [ONC0002556, pnu177864]	83.59%
30	CCOC(=O)c1c2c3c(cccc3[nH]c1=O)C(=O)c1ccccc1-2 [ONC0001061, nqdi1]	43.7%

Carrying on.

Row | Structure (SMILES) | % viability
41 | OC[C@@H](O)CN1CCN(c2ccccc2)CC1 [ONC0004722, levodropropizine] | 109.8%
42 | CCCCCC(O)CCCC(=O)O (centres unmarked) [ONC0003475, 5hydroxydecanoate sodium salt] | 72.97%
43 | COc1ccc(CCO[C@@H]2CCCC[C@H]2N2CC[C@@H](O)C2)cc1OC [ONC0001796, vernakalant hydrochloride] | 98.02%
44 | Cc1c(Nc2ncccc2C(=O)O)cccc1C(F)(F)F [ONC0005632, flunixin meglumine] | 61.08%
45 | CC[C@H](c1ccc(O)cc1)[C@@H](CC)c1ccc(O)cc1 [ONC0003849, hexestrol] | 49.29%
46 | CCCNC(=O)N1N=C(c2ccc(N)cc2)c2cc3c(cc2C1C)OCO3 (centres unmarked) [ONC0001574, sym2206] | 95.05%
47 | Cc1cccc(Cc2c[nH]cn2)c1C [ONC0004761, detomidine hcl] | 119.1%
48 | Cc1nc2ccc(Oc3ccc(F)cc3)cc2c(=O)n1C[C@H]1CCCN(C(C)C)C1 [ONC0001600, yil781] | 73.3%
49 | COc1cc(N)c(Cl)cc1C(=O)OCCN1CCCCC1 [ONC0001656, ml10302] | 90.28%
50 | C1=C2CCCN[C@H]2[C@@H]2C[C@H]1[C@H]1CCCCN1C2 [ONC0004687, aloperine] | 97.24%
51 | N#CC(C#N)=Cc1ccc(O)c(O)c1 [ONC0001262, tyrphostinag18] | 74.38%
52 | O=C(O)COc1cccc(CN(Cc2ccc(-n3cccn3)cc2)S(=O)(=O)c2cccnc2)c1 [ONC0000946, taprenepag] | 73.21%
53 | CC(=O)OCC(=O)[C@@]1(O)CC[C@H]2[C@@H]3CCC4=CC(=O)C=C[C@]4(C)[C@H]3[C@@H](O)C[C@@]21C [ONC0000513, prednisolone acetate] | 76.31%
54 | O=C1NC(c2cccc([N+](=O)[O-])c2)=CCN1c1ccccc1O [ONC0003023, icilin] | 75.59%
55 | CN1CCN(C(=O)c2cc3cc(Cl)ccc3[nH]2)CC1 [ONC0004776, jnj7777120] | 56.23%
56 | CCCN(CC1CC1)c1nc(C)nc(Nc2c(Cl)cc(Cl)cc2Cl)c1Cl [ONC0001865, nbi27914] | 125.6%
57 | O=C1COc2nccc(-c3ccccc3F)c2CN1Cc1cc(C(F)(F)F)cc(C(F)(F)F)c1 [ONC0000001, gpbara] | 79.71%
58 | CNc1cc(OC)c(C(=O)N[C@@H]2CCN(Cc3ccccc3)[C@@H]2C)cc1Cl.CNc1cc(OC)c(C(=O)N[C@H]2CCN(Cc3ccccc3)[C@H]2C)cc1Cl [ONC0002725, nemonapride] | 82.55%
59 | CCOC(=O)CNC(=O)[C@@H]1CCCN1C(=O)Cc1ccccc1 [ONC0001144, omberacetam] (PhAc-Pro-Gly-OEt) | 45.25%
